Laboratory results reported in paper PMC4374842.
No constants are given. Whether binding was seen depends on the method and setting. Binding seen in cells or lysates may run through a third protein. Some entries that bind do so weakly or less than the wild type. Values belong to the substance of their own block, whether it stands above or below them.

Amino acid sequences for entries named in this document (tags omitted).
UniProt P49902: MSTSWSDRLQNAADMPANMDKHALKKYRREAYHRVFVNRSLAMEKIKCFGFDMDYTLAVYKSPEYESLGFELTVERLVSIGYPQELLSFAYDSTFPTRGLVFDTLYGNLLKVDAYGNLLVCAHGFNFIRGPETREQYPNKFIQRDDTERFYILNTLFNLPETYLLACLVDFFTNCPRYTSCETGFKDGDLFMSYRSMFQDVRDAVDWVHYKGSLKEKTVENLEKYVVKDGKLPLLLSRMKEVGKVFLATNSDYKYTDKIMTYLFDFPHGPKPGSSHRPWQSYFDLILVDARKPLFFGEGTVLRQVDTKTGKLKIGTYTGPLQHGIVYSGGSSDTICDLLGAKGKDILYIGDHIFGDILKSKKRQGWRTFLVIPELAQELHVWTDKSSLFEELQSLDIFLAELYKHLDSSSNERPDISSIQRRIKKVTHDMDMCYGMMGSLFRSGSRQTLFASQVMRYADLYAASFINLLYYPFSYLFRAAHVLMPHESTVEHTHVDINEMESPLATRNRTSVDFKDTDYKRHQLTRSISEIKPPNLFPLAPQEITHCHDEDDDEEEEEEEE
UniProt Q9NPP4: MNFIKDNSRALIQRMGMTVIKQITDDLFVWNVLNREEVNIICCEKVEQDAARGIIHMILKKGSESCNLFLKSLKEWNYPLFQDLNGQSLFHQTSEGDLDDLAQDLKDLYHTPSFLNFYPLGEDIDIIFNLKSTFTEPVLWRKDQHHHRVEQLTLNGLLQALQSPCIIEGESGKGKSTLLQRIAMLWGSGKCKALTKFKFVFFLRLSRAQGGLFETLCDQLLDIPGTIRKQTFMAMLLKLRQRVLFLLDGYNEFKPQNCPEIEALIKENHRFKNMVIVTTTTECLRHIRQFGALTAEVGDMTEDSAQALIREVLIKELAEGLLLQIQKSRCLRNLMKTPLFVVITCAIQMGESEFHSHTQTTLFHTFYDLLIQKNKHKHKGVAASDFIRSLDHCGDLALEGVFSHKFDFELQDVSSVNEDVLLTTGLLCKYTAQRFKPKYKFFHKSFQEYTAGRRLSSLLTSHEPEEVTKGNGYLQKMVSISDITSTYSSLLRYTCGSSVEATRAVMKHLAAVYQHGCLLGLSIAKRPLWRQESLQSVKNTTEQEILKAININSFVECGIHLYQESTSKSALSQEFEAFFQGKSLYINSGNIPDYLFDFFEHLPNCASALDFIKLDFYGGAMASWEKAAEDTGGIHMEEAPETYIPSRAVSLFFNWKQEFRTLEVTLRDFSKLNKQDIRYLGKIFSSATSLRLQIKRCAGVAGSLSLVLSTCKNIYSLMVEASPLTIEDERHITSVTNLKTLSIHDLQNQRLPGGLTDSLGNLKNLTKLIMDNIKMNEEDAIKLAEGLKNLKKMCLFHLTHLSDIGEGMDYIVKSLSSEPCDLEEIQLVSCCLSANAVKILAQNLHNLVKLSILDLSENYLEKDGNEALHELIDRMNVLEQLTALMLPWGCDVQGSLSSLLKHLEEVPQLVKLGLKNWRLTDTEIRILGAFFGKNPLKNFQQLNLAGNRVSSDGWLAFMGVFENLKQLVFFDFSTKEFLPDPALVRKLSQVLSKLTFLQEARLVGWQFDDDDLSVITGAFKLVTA

Assays:
[1] = target: Endogenous human cytosolic 5'-nucleotidase II (cN-II) (human (endogenous in HEK 293 T, A549, MDA-MB-231, MCF7)) (UniProt P49902); assay: proximity ligation; Duolink PLA with antibodies against cN-II and Ipaf in fixed A549 and MDA-MB-231 cells stably transfected with pScont or pScN-II (cN-II knock-down); both proteins endogenous
[2] = target: Endogenous human cytosolic 5'-nucleotidase II (cN-II) (human (endogenous in HEK 293 T, A549, MDA-MB-231, MCF7)) (UniProt P49902); assay: co-IP; HEK 293 T lysate (20 mM Tris-HCl pH 6.8, 1 mM MgCl2, 2 mM EGTA, 0.5% NP40); endogenous cN-II immunoprecipitated with anti-cN-II (clone 3C1); transfected Ipaf forms detected with anti-GFP
[3] = target: Endogenous human cytosolic 5'-nucleotidase II (cN-II) (human (endogenous in HEK 293 T, A549, MDA-MB-231, MCF7)) (UniProt P49902); assay: proximity ligation; Duolink PLA with antibodies against cN-II and Ipaf in fixed MCF7 cells transiently co-transfected with pEZ-M02-Ipaf and pEGFP-C1 (10:1); GFP-positive cells analysed

- binding [1]: binds
Substance: Endogenous Ipaf in A549 and MDA-MB-231 cells (from UniProt Q9NPP4 1-1024)

- binding [2]: binds
Substance: Ipaf fused to YFP (pEZ-M15-YFP/Ipaf) (from UniProt Q9NPP4 1-1024)

- binding [3]: binds
Substance: Whole Ipaf expressed from pEZ-M02-Ipaf (from UniProt Q9NPP4 1-1024)
